# This is one part of the list.
# Sequences of proteins named here, by UniProt entry; tags and fusion partners are left off. A change or cut given only in a name is not applied to a line headed by its entry.
# UniProt Q15738: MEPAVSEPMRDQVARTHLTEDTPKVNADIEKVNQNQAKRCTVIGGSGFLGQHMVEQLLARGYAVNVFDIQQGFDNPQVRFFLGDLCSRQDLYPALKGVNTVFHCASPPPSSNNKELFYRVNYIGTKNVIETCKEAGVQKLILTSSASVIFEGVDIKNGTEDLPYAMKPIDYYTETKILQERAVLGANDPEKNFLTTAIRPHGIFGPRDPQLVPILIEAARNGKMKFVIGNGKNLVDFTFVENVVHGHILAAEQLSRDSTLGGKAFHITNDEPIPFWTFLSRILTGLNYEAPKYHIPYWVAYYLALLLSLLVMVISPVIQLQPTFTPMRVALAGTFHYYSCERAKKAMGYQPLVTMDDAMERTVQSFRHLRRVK
# UniProt Q8NEN9: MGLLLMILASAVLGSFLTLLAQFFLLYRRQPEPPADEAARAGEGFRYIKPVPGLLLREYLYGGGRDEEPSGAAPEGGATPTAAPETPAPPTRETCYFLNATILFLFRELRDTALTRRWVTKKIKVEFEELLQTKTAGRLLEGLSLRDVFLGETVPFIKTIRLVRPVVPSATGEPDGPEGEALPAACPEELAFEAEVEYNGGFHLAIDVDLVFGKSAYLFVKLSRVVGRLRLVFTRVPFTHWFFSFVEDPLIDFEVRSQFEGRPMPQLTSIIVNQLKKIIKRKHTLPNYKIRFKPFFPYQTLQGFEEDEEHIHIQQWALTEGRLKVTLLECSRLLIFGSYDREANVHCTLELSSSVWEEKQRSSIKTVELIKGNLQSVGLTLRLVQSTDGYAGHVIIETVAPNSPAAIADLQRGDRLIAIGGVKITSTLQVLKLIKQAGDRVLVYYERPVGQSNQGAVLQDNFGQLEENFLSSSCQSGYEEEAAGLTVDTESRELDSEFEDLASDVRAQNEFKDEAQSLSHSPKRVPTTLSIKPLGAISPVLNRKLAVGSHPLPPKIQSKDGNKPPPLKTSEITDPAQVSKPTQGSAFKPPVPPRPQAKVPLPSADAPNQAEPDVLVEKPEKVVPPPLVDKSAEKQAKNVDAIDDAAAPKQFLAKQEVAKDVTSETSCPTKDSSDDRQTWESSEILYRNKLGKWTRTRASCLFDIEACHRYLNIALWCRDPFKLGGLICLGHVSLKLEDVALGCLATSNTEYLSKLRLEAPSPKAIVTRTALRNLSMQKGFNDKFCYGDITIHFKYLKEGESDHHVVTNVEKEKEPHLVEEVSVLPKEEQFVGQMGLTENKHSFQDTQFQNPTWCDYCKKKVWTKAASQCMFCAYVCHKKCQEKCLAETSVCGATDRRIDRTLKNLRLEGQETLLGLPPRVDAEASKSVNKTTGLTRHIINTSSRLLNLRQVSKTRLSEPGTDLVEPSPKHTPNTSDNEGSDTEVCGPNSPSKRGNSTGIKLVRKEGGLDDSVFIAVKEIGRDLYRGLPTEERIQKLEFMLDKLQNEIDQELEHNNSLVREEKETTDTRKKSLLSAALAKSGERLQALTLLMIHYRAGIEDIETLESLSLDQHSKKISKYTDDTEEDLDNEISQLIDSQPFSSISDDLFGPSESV
# UniProt Q13438: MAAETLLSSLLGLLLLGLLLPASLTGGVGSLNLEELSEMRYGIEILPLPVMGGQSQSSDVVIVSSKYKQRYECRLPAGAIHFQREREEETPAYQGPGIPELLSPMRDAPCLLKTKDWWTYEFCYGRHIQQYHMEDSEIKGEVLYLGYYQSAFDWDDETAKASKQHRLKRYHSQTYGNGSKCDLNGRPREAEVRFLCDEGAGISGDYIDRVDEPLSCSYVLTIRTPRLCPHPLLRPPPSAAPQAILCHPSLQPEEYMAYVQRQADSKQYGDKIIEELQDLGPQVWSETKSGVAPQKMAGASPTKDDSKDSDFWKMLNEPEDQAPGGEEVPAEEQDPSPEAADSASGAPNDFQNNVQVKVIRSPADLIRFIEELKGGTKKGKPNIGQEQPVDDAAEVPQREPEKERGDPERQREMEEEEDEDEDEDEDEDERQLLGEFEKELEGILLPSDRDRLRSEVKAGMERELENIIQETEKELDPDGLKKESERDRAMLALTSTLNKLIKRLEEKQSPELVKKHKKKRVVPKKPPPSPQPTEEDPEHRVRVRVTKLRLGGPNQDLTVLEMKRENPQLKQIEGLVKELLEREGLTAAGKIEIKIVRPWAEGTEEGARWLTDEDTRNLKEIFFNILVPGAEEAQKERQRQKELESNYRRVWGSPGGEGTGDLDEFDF
# UniProt Q8WZ82: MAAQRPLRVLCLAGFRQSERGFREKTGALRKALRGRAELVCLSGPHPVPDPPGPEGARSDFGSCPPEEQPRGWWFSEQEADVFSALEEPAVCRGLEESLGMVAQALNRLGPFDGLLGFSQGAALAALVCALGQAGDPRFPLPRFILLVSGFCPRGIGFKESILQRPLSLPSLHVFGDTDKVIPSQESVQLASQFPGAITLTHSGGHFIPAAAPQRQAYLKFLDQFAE
# UniProt Q9NWU1, whole entry: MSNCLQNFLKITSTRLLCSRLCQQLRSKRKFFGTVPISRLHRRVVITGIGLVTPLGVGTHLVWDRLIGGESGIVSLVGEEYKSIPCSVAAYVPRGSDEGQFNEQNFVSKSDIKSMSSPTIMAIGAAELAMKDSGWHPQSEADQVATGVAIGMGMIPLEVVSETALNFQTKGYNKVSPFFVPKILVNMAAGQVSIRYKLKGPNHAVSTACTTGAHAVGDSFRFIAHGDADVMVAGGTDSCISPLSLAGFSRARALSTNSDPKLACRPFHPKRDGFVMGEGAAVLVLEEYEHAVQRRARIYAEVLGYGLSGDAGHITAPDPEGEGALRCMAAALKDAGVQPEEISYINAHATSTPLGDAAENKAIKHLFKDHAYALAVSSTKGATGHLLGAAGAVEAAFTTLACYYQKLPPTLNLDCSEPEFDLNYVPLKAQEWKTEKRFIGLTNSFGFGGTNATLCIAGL
# UniProt Q16822, whole entry: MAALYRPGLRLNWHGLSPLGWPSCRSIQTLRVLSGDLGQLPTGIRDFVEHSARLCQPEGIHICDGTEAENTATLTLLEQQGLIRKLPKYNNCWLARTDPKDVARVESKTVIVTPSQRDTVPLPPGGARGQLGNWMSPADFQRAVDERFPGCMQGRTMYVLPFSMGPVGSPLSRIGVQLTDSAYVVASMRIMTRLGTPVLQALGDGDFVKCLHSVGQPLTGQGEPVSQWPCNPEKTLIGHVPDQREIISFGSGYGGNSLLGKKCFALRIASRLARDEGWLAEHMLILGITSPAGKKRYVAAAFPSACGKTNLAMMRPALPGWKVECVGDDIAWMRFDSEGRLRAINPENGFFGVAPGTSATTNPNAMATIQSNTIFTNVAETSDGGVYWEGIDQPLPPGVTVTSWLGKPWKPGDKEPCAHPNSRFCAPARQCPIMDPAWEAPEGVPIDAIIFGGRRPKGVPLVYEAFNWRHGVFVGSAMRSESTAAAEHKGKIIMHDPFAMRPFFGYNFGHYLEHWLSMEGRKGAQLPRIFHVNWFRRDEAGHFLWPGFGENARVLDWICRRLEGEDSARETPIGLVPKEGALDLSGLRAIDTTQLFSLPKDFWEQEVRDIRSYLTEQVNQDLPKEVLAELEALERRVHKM
# UniProt P22059, whole entry: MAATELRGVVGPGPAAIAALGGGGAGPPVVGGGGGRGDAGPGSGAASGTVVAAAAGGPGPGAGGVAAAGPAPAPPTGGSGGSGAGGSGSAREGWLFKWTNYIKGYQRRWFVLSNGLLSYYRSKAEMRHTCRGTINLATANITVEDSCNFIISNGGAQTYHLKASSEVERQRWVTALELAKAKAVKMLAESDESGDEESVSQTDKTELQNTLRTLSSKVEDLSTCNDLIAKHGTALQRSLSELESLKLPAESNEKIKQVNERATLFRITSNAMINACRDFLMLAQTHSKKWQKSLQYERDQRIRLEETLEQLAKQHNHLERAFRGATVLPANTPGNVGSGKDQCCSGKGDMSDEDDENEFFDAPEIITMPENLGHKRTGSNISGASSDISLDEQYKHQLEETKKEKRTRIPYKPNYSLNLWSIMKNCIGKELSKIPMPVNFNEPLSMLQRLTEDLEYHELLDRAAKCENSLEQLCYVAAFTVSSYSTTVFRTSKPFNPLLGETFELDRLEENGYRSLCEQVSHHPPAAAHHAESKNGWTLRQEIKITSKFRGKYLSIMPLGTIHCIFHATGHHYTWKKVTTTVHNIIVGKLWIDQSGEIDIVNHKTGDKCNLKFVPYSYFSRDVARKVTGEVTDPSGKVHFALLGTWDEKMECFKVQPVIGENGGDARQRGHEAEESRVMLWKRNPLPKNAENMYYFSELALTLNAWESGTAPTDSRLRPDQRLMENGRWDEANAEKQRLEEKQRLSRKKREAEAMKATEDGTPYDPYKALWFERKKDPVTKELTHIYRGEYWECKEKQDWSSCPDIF
# UniProt P18669: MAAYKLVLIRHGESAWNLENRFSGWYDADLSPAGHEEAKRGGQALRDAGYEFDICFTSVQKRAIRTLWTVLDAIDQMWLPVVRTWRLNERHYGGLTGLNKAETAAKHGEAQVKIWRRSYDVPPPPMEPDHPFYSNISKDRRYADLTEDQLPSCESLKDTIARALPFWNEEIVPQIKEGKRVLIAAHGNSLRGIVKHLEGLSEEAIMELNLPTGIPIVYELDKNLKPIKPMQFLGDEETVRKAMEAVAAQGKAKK
# UniProt Q16342: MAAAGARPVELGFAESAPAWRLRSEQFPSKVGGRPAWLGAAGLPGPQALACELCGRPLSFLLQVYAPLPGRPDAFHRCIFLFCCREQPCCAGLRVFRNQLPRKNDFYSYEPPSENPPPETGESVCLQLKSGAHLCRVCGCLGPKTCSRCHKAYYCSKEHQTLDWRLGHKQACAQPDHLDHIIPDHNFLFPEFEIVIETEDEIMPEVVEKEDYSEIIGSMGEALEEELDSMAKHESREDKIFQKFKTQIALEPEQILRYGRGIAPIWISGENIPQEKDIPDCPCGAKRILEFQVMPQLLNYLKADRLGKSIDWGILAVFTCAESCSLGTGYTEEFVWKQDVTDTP
# UniProt Q9UNZ2: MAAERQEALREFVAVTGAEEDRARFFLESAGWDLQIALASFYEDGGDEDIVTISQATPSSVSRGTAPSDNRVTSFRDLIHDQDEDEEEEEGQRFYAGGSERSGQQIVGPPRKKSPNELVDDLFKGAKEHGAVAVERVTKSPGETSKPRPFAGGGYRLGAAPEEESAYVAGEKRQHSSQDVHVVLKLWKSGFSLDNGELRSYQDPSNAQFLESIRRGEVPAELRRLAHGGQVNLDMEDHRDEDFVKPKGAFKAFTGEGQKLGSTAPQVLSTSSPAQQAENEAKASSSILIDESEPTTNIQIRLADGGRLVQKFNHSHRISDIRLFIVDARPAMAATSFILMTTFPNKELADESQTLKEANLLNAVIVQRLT
# UniProt Q9H4D5: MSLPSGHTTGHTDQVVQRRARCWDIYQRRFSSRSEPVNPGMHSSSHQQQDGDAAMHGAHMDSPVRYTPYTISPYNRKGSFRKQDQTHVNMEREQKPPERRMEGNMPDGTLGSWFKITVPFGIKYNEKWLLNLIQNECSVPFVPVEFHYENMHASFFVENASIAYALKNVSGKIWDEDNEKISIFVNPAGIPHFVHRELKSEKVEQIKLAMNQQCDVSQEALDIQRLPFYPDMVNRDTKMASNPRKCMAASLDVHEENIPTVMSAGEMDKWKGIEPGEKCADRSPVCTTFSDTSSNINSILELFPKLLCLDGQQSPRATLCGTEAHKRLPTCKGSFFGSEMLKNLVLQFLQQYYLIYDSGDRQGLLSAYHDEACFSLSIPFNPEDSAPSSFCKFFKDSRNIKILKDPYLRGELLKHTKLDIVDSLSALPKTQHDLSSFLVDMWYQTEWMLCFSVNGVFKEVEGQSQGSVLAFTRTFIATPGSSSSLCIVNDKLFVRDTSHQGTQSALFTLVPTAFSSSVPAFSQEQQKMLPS
# UniProt Q5JVF3: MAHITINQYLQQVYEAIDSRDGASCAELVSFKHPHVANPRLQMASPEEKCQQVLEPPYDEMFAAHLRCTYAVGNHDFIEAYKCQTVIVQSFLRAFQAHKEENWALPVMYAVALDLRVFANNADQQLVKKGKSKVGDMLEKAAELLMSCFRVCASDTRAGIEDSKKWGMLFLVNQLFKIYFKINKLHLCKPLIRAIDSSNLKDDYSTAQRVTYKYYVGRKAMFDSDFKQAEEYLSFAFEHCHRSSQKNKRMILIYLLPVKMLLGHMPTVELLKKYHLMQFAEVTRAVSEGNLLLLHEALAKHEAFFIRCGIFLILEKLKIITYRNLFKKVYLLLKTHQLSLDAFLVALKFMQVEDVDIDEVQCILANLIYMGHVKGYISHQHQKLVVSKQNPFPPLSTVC
# UniProt Q9BYG5: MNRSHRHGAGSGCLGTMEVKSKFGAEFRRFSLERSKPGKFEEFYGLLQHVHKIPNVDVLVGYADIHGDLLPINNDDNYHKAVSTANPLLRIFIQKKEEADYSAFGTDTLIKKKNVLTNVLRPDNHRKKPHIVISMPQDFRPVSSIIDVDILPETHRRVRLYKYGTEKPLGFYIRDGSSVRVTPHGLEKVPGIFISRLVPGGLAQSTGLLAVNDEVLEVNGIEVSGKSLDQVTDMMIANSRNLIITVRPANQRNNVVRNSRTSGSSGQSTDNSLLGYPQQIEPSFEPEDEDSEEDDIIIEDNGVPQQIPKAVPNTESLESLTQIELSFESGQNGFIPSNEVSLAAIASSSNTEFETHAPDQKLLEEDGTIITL
# Compound: COc1ccc(Cn2ccc3ccc(C(=O)NO)cc32)cc1
# Assay: dose-dependent thermal stabilisation call (2D-TPP, DLPTP, 10% FDR) (binary (1 = stabilised)); higher = stabilised by the compound
# Settings: system: HL-60 intact cells; concentration range 0.04-10 µM
row,Target,dose-dependent thermal stabilisation call
1,NRAS (UniProt P01111),inactive: 0
2,NSMAF (UniProt Q92636),inactive: 0
3,NSDHL (UniProt Q15738),active: 1
4,OLA1 (UniProt Q9NTK5),inactive: 0
5,P4HA1 (UniProt P13674),inactive: 0
6,PCNA (UniProt P12004),active: 1
7,PECI (UniProt O75521),inactive: 0
8,PABPC4 (UniProt Q13310),inactive: 0
9,PFKFB3 (UniProt Q16875),inactive: 0
10,PFAS (UniProt O15067),inactive: 0
11,NRF1 (UniProt Q16656),inactive: 0
12,PARL (UniProt Q9H300),inactive: 0
13,PDZD8 (UniProt Q8NEN9),inactive: 0
14,NXF1 (UniProt Q9UBU9),inactive: 0
15,PDCD5 (UniProt O14737),active: 1
16,OS9 (UniProt Q13438),inactive: 0
17,NSMCE2 (UniProt Q96MF7),inactive: 0
18,OVCA2 (UniProt Q8WZ82),inactive: 0
19,PDCD6 (UniProt O75340),inactive: 0

row,Target,dose-dependent thermal stabilisation call
1,OXSM (UniProt Q9NWU1),inactive: 0
2,PCK2 (UniProt Q16822),inactive: 0
3,PEX13 (UniProt Q92968),inactive: 0
4,OSBP (UniProt P22059),inactive: 0
5,PGAM1 (UniProt P18669),active: 1
6,PDCD2 (UniProt Q16342),inactive: 0
7,NSFL1C (UniProt Q9UNZ2),inactive: 0
8,OSBPL11 (UniProt Q9BXB4),inactive: 0
9,NXF3 (UniProt Q9H4D5),inactive: 0
10,PDCD10 (UniProt Q9BUL8),inactive: 0
11,NUDT16 (UniProt Q96DE0),inactive: 0
12,PASK (UniProt Q96RG2),inactive: 0
13,NT5C3 (UniProt Q9H0P0),inactive: 0
14,PCID2 (UniProt Q5JVF3),inactive: 0
15,PAF1 (UniProt Q8N7H5),inactive: 0
16,PARD6B (UniProt Q9BYG5),inactive: 0
17,NUTF2 (UniProt P61970),inactive: 0
18,OTUD7B (UniProt Q6GQQ9),inactive: 0
19,NUP210 (UniProt Q8TEM1),inactive: 0

# Reference: the supplement of paper PMC7666118
